This experiment concerns BDF1 mice, Lymphoma 8 ip, survival T/C. Nature of the experiment: NCI In Vivo Anticancer Drug Screen. Data for tumor model Lymphoma 8 (intraperitoneal) in B6D2F1 (BDF1) mice. Particulars: higher T/C = longer survival. The procedure:
The antitumor activity of compounds was measured in mice bearing transplantable tumors. Survival or tumor size were measured and the results are expressed as the measurement made in the treated group (T) divided by the measurement made in the vehicle treated control group (C). The tumor model used in this assay is Lymphoma 8 (intraperitoneal) in B6D2F1 (BDF1) mice

[1] abbreviates: T/C endpoint: survival time, mean or median, dose: 2.5 mg/kg/injection, schedule: Q01DX010 (ip), vehicle: saline.
The mark [2] stands for this setting: T/C endpoint: survival time, mean or median, dose: 250.0 mg/kg/injection, schedule: Q01DX010 (ip), vehicle: saline.
Setting [3] is: T/C endpoint: survival time, mean or median, dose: 25.0 mg/kg/injection, schedule: Q01DX010 (ip), vehicle: saline.

Each structure is given as a SMILES string. The list shows only some results of the screen, not a fair sample: it is rich in T/C values a quarter to a half above the control, in often repeated tests (any T/C) and in doses without a T/C. Further doses and runs are listed elsewhere. T/C is the treated group as % of the vehicle group. Some entries give survivors of the animals treated and no T/C: the source files T/C as zero there, which appears to mark a toxic dose or a test without result, not a measured value. Some doses without a T/C left all or most animals alive at the check, yet need not have been tolerated: the source hardly ever lists a survival T/C far under the control, and the zero likely stands for such cases as well. Survivors were counted at the toxicity check, usually on the fifth day, unless a day is given; later deaths do not show. Schedule codes are those of the source, read here as Q, the interval in days (D) or hours (H), X, the number of doses. Some entries hold several experiments; the values are given in rising order. Where survival is the endpoint, this PubChem deposit counts one and a half times the control or more as active, and values a quarter to a half above the control carry no call in these data; other NCI protocols may use other cut-offs. Counts like (3×) count equal records among those shown. Some T/C values carry the count of animals alive at the toxicity check (mostly the fifth day); where none is given, no animal had died by that day.

Take `COc1cc(-c2ccc(Nc3ccccc3C(=O)O)c(OC)c2)ccc1N`: the survivor count (T/C endpoint: survival time, mean or median, dose: 160.0 mg/kg/injection, schedule: Q01DX010 (ip), vehicle: saline) is 4 of 7 and 7 of 7.

Turning to `CCN(CCNc1ccc(C)c2sc3cc(Cl)ccc3c(=O)c12)CC(C)O` (stereo not given), the survivor count (T/C endpoint: survival time, mean or median, dose: 62.5 mg/kg/injection, schedule: Q01DX010 (ip), vehicle: saline) is 6 of 6.

For `Oc1cc(CN(CCCl)CCCl)c(O)cc1CN(CCCl)CCCl`, the survivor count (T/C endpoint: survival time, mean or median, dose: 1.25 mg/kg/injection, schedule: Q01DX010 (ip), vehicle: saline) is listed as 3 of 6. In addition, the T/C under setting [1] is 125 and 128 % of control [5 of 6 alive].

Take `CCN(CC)c1ccc2cc3ccc(=[N+](CC)CC)cc-3oc2c1`: the survivor count is, setting by setting: (T/C endpoint: survival time, mean or median, dose: 2.0 mg/kg/injection, schedule: Q01DX010 (ip), vehicle: saline) 6 of 6; (T/C endpoint: survival time, mean or median, dose: 4.0 mg/kg/injection, schedule: Q01DX010 (ip), vehicle: saline) 6 of 6; (T/C endpoint: survival time, mean or median, dose: 8.0 mg/kg/injection, schedule: Q01DX010 (ip), vehicle: saline) 4 of 6.

Take `Nc1nc2n[nH]nc2c(=O)[nH]1`: the survivor count is 0 of 6 (T/C endpoint: survival time, mean or median, dose: 200.0 mg/kg/injection, schedule: Q01DX010 (ip), vehicle: alkali diluted with saline) and 0 of 6 (T/C endpoint: survival time, mean or median, dose: 400.0 mg/kg/injection, schedule: Q01DX010 (ip), vehicle: alkali diluted with saline).

Take `CCCCNc1ncnc2c1cnn2C`: the survivor count by setting is: (T/C endpoint: survival time, mean or median, dose: 15.6 mg/kg/injection, schedule: Q01DX010 (ip), vehicle: saline) 6 of 6; (T/C endpoint: survival time, mean or median, dose: 125.0 mg/kg/injection, schedule: Q01DX010 (ip), vehicle: saline) 6 of 6; under setting [2], 0 of 6 and 1 of 6.

With `C1CN1c1nc(N2CC2)nc(N2CC2)n1`, the T/C (T/C endpoint: survival time, mean or median, dose: 0.5 mg/kg/injection, schedule: Q01DX010 (ip), vehicle: saline) is 137 % of control. Further, where the note is “T/C endpoint: survival time, mean or median, dose: 1.0 mg/kg/injection, schedule: Q01DX010 (ip), vehicle: saline”, the survivor count was 6 of 6.

For the compound `CCN(CC)CCNc1ccc(C)c2sc3ccccc3c(=O)c12`, the T/C under setting [3] is 127 % of control (2×); the T/C (T/C endpoint: survival time, mean or median, dose: 50.0 mg/kg/injection, schedule: Q01DX010 (ip), vehicle: saline) was 127 % of control; the T/C (T/C endpoint: survival time, mean or median, dose: 100.0 mg/kg/injection, schedule: Q01DX010 (ip), vehicle: saline) is 145 % of control. Further, under “T/C endpoint: survival time, mean or median, dose: 200.0 mg/kg/injection, schedule: Q01DX010 (ip), vehicle: saline”, the survivor count was 4 of 6 and 5 of 6.

In the case of `CC(=O)NC1=C(N2CC2)C(=O)C(NC(C)=O)=C(N2CC2)C1=O`, the survivor count by setting is: (T/C endpoint: survival time, mean or median, dose: 2.0 mg/kg/injection, schedule: Q01DX015 (ip), vehicle: carboxymethylcellulose (CMC)) 10 of 10; (T/C endpoint: survival time, mean or median, dose: 4.0 mg/kg/injection, schedule: Q01DX015 (ip), vehicle: carboxymethylcellulose (CMC)) 10 of 10.

For `O=c1cnn(C2OC(CO)C(O)C2O)c(=O)[nH]1` (stereo not given), the T/C (T/C endpoint: survival time, mean or median, dose: 400.0 mg/kg/injection, schedule: Q01DX008 (ip), vehicle: saline) is 126 % of control. The survivor count (T/C endpoint: survival time, mean or median, dose: 1600.0 mg/kg/injection, schedule: Q01DX008 (ip), vehicle: saline) was 6 of 6.

Take `N[C@@H](Cc1ccc(N(CCCl)CCCl)cc1)C(=O)O`: the survivor count is reported as 10 of 10 (T/C endpoint: survival time, mean or median, dose: 6.0 mg/kg/injection, schedule: Q01DX015 (ip), vehicle: carboxymethylcellulose (CMC)); 10 of 10 (T/C endpoint: survival time, mean or median, dose: 8.0 mg/kg/injection, schedule: Q01DX015 (ip), vehicle: carboxymethylcellulose (CMC)); 10 of 10 (T/C endpoint: survival time, mean or median, dose: 12.0 mg/kg/injection, schedule: Q01DX015 (ip), vehicle: carboxymethylcellulose (CMC)).

In the case of `N#[N+]c1cnc([O-])[nH]c1=O`, the T/C under setting [1] is 129 % of control; the T/C (T/C endpoint: survival time, mean or median, dose: 5.0 mg/kg/injection, schedule: Q01DX010 (ip), vehicle: saline) is 133 % of control; the T/C (T/C endpoint: survival time, mean or median, dose: 10.0 mg/kg/injection, schedule: Q01DX010 (ip), vehicle: saline) is 137 % of control. Moreover, the survivor count (T/C endpoint: survival time, mean or median, dose: 20.0 mg/kg/injection, schedule: Q01DX010 (ip), vehicle: saline) is 0 of 6.

As for `O=C(O)CCCc1ccc(N(CCCl)CCCl)cc1`, the T/C (T/C endpoint: survival time, mean or median, dose: 12.5 mg/kg/injection, schedule: Q01DX010 (ip), vehicle: saline) is 129 % of control. Also, the survivor count under setting [3] was 5 of 6 and 6 of 6.

For `CC(C)CNS(=O)(=O)c1ncnc2nc[nH]c12`, the survivor count (T/C endpoint: survival time, mean or median, dose: 150.0 mg/kg/injection, schedule: Q01DX015 (ip), vehicle: carboxymethylcellulose (CMC)) was 10 of 10.

Take `CN(N=O)C(=O)N[C@@H](C=O)[C@@H](O)[C@H](O)[C@H](O)CO`: the T/C (T/C endpoint: survival time, mean or median, dose: 25.0 mg/kg/injection, schedule: Q01DX008 (im), vehicle: saline) was 131 % of control; the T/C (T/C endpoint: survival time, mean or median, dose: 25.0 mg/kg/injection, schedule: Q01DX008 (ip), vehicle: saline) was 125 % of control; the T/C (T/C endpoint: survival time, mean or median, dose: 50.0 mg/kg/injection, schedule: Q01DX008 (im), vehicle: saline) was 138 % of control; the T/C (T/C endpoint: survival time, mean or median, dose: 50.0 mg/kg/injection, schedule: Q01DX008 (sc), vehicle: saline) is 139 % of control; the T/C (T/C endpoint: survival time, mean or median, dose: 100.0 mg/kg/injection, schedule: Q01DX008 (sc), vehicle: saline) is 147 % of control. Besides, the survivor count (T/C endpoint: survival time, mean or median, dose: 100.0 mg/kg/injection, schedule: Q01DX008 (ip), vehicle: saline) is 10 of 10; the survivor count (T/C endpoint: survival time, mean or median, dose: 200.0 mg/kg/injection, schedule: Q01DX008 (im), vehicle: saline) is given as 10 of 10; the survivor count (T/C endpoint: survival time, mean or median, dose: 200.0 mg/kg/injection, schedule: Q01DX008 (ip), vehicle: saline) is 0 of 10 and 4 of 6; the survivor count (T/C endpoint: survival time, mean or median, dose: 200.0 mg/kg/injection, schedule: Q01DX008 (iv), vehicle: saline) is 10 of 10; the survivor count (T/C endpoint: survival time, mean or median, dose: 200.0 mg/kg/injection, schedule: Q01DX008 (sc), vehicle: saline) was 10 of 10.

As to `Cc1c(O)ccc(=O)n1O`, the T/C was 139 % of control (T/C endpoint: survival time, mean or median, dose: 165.0 mg/kg/injection, schedule: Q01DX015 (ip), vehicle: other) and 133 % of control (T/C endpoint: survival time, mean or median, dose: 247.0 mg/kg/injection, schedule: Q01DX015 (ip), vehicle: other).

As for `C[C@@H]1C[C@H]2CC[C@H](O2)[C@H](C)C(=O)O[C@@H](C)C[C@@H]2CC[C@@H](O2)[C@@H](C)C(=O)O[C@H](C)C[C@H]2CC[C@H](O2)[C@H](C)C(=O)O[C@@H](C)C[C@@H]2CC[C@@H](O2)[C@@H](C)C(=O)O1`, where the note is “T/C endpoint: survival time, mean or median, dose: 180.0 mg/kg/injection, schedule: Q01DX015 (ip), vehicle: other”, the survivor count is 10 of 10.

Take `Cn1c(O)c(N=NC(N)=S)c2ccccc21`: the T/C (T/C endpoint: survival time, mean or median, dose: 25.0 mg/kg/injection, schedule: Q01DX015 (ip), vehicle: carboxymethylcellulose (CMC)) is 143 % of control.

Regarding `CC(=O)N(C)C`, the survivor count under setting [2] is recorded as 6 of 6.

In the case of `CN(C)[C@@H]1C(=O)C(C(N)=O)=C(O)[C@@]2(O)C(=O)C3=C(O)c4c(O)cccc4C[C@H]3C[C@@H]12`, the survivor count reads like this: (T/C endpoint: survival time, mean or median, dose: 60.0 mg/kg/injection, schedule: Q01DX015 (ip), vehicle: alkali diluted with saline) 8 of 10; (T/C endpoint: survival time, mean or median, dose: 120.0 mg/kg/injection, schedule: Q01DX015 (ip), vehicle: alkali diluted with saline) 8 of 10.

As to `Cc1cc2nc3c(=O)[nH]c(=O)nc-3n(CC(O)C(O)C(O)C(O)CO)c2cc1C` (stereo not given), the survivor count by setting is: (T/C endpoint: survival time, mean or median, dose: 100.0 mg/kg/injection, schedule: Q01DX015 (ip), vehicle: carboxymethylcellulose (CMC)) 10 of 10; (T/C endpoint: survival time, mean or median, dose: 400.0 mg/kg/injection, schedule: Q01DX015 (ip), vehicle: carboxymethylcellulose (CMC)) 10 of 10.

Turning to `Nc1nc(SCc2ccccn2)c2[nH]cnc2n1`, under “T/C endpoint: survival time, mean or median, dose: 50.0 mg/kg/injection, schedule: Q01DX015 (ip), vehicle: carboxymethylcellulose (CMC)”, the survivor count was 10 of 10.

Regarding `CN(Cc1cnc2nc(N)nc(N)c2n1)c1ccc(C(=O)N[C@@H](CCC(=O)O)C(=O)O)cc1`, for the setting “T/C endpoint: median survival time, dose: 4.0 mg/kg/injection, schedule: Q01DX009 (ip), vehicle: sodium bicarbonate”, the survivor count is given as 7 of 10.

Turning to `O=NN(CCCl)C(=O)NCCCl`, the T/C reads like this: (T/C endpoint: survival time, mean or median, dose: 4.0 mg/kg/injection, schedule: Q01DX015 (ip), vehicle: saline) 141 % of control; (T/C endpoint: survival time, mean or median, dose: 6.0 mg/kg/injection, schedule: Q01DX015 (ip), vehicle: saline) 149 % of control.

Source of the values: PubChem BioAssay AID242 (DTP/NCI, 2004).
